Among all 400,000 compounds or so, about 13,000 (3.2%) were called active. The inconclusive results got no clear call from the source; some entries with a clear call stand among them for comparison. Calls come from the whole dose curve; as a rule, active = well fitted cell-killing curve with a large enough effect; inconclusive = small, poorly fitted or top-dose-only effect, or effect the other way; inactive = flat fitted curve, though single readings scatter. Potencies of inconclusive entries are doubtful fits and often do not repeat.
Assay: qHTS assay for MDR1-selective chemotherapeutics: Primary screen using the drug-selected MDR subline cells KB-V1; note: nearly all actives have a fitted effect of over 60% in size
Conditions: KB-V1 MDR cells viability, CellTiter-Glo, 72 h; activity change, negative = cytotoxicity: at 46.1 µM (top of the series)
In short: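 KB-V1, DMEM (no phenol red) + 10% FBS; cpd pin-transferred, titration series; 72 h, 37 degrees C; CellTiter-Glo, luminescence. Data normalized, curve-fit.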
In the case of `COc1cccc(/C=N/NC(=O)C(=O)Nc2ccccc2OC(F)(F)C(F)F)c1O`, the Potency is reported as inconclusive: 3.26 µM [cytotoxic, full curve, poor fit].
With `Cc1ccccc1C(c1ncccc1C)N(C)C(=O)C1CCN(CCOc2ccc(Cl)cc2Cl)CC1` (stereo not drawn) the Potency was inconclusive: 29.1 µM [cytotoxic, single point].
With `COc1ccc(C(=O)/C=C/Nc2ccc(NC(C)=O)cc2)cc1OC` the Potency was inconclusive: 29.1 µM [cytotoxic, single point].
For `C=C(C)C(=O)N1CC2(CC(c3cccc(NC(=O)CC)c3)=NO2)C[C@H]1C(N)=O` (stereo partly drawn), the Potency was “inactive”.
With `COC(=O)Nc1nnc(-c2ccccc2Cl)s1` the Potency was inconclusive: 20.6 µM [cytotoxic, partial curve, poor fit].
For `COc1ccc(-c2cn3nc(N4CCCC(C(=O)NCc5ccccc5OC)C4)sc3n2)cc1` (stereo not drawn), the Potency was “inactive”.
In the case of `COc1ccc(N2CCC(CNC(=O)Nc3cccc(OC)c3)C2)cc1` (stereo not drawn), the Potency is reported as active: 20.6 µM.
For `CCOc1ccc(CCNC(=O)c2cc3sccc3n2C)cc1OCC`, the Potency was active: 8.2 µM.
In the case of `CC[C@]12CCCN3CCc4c(n(c5ccccc45)[C@@](O)(C(=O)OC)C1)[C@@H]32`, the Potency is reported as “inactive”.
With `Fc1ccc(Nc2cncc(-c3ccsc3)c2)cc1Cl` the Potency was “inactive”.
In the case of `O=C(O)Cc1ccc(NC(=O)Cc2ccc3ccccc3c2)cc1`, the Potency is reported as inconclusive: 18.4 µM [rising, partial curve, poor fit].
In the case of `COc1ccc(S(=O)(=O)N2CCOCC2)cc1NC(=O)C1CC(=O)N(c2ccc3c(c2)OCCO3)C1` (stereo not drawn), the Potency is reported as inconclusive: 20.6 µM [rising, single point].
For `Cc1ccsc1CN1CC(=O)N(c2c(C)cccc2C)C1=S`, the Potency was inconclusive: 29.1 µM [cytotoxic, single point].
In the case of `CCOc1ccc(S(=O)(=O)N2CCOCC2)cc1NC(=O)CSC(=S)N1CCCC1`, the Potency is reported as inconclusive: 7.31 µM [cytotoxic, partial curve].
For `O=C(O)/C=C/C(=O)c1ccc2c(c1)CCc1ccccc1-2`, the Potency was inconclusive: 29.1 µM [cytotoxic, single point].
With `CS(=O)(=O)c1nc(-c2ccc(Br)cc2)cc(-c2ccccc2)c1C#N` the Potency was “inactive”.
In the case of `COc1ccccc1N(CC(=O)NCCSCc1ccccc1)S(=O)(=O)c1ccccc1`, the Potency is reported as inconclusive: 9.2 µM [cytotoxic, partial curve].
For `O=C(CCC(=O)N1CCSc2ccccc21)Nc1ccc(F)cc1`, the Potency was inconclusive: 29.1 µM [rising, single point].
In the case of `O=C(Nc1ccc(F)cc1)C1CCCN1S(=O)(=O)c1cccc2nsnc12` (stereo not drawn), the Potency is reported as inconclusive: 13 µM [cytotoxic, partial curve].
For `CCOCCCn1c(=N)c(C(N)=S)cc2c(=O)n3cccc(C)c3nc21`, the Potency was active: 16.4 µM.
With `Fc1ccc(Nc2nc(NCc3ccco3)nc3nccnc23)cc1` the Potency was “inactive”.
With `CNc1nc(N/N=C/c2cc([N+](=O)[O-])ccc2F)nc(Nc2ccccc2)n1` the Potency was inconclusive: 18.4 µM [cytotoxic, single point].
For `O=C(CN1CCN(Cc2ccc(Cl)cc2)CC1)N1CCc2ccccc21`, the Potency was “inactive”.
For `CC(=O)Cn1cnc2scc(-c3ccc(C)c(C)c3)c2c1=O`, the Potency was “inactive”.
For `CON(C)C(=O)CC1(CN(Cc2ccccc2)C(=O)OC(C)(C)C)CCCCC1`, the Potency was inconclusive: 20.6 µM [cytotoxic, single point].
For `COc1ccc([N+](=O)[O-])cc1NC(=O)CCS(=O)(=O)c1ccc(Br)cc1`, the Potency was inconclusive: 16.4 µM [cytotoxic, partial curve, poor fit].
For `Cc1cc2oc(C(=O)NC3CCS(=O)(=O)C3)cc(=O)c2cc1C` (stereo not drawn), the Potency was inconclusive: 1.3 µM [rising, full curve].
For `Cc1ccc(S(=O)(=O)Nc2c(C(=O)O)[nH]c3ccccc23)cc1C`, the Potency was inconclusive: 23.1 µM [rising, single point].
With `Cc1cc(C(=O)CSc2nnc(-c3ccco3)o2)c(C)n1CC1COc2ccccc2O1` (stereo not drawn) the Potency was inconclusive: 23.1 µM [cytotoxic, single point].
For `O=C(CN1CCc2ccccc2C1)Nc1cccc(S(=O)(=O)N2CCCC2)c1`, the Potency was inconclusive: 20.6 µM [cytotoxic, single point].
For `COc1ccc(N2CCN(C(=O)CCC(=O)N3CC(C)Oc4ccccc43)CC2)cc1` (stereo not drawn), the Potency was inconclusive: 18.4 µM [cytotoxic, single point].
For `CC(C)Cc1nc(C#N)c(N2CCC(C(N)=O)CC2)o1`, the Potency was inconclusive: 29.1 µM [rising, single point].
For `COc1cc(C(=O)NC(=S)Nc2cccc3nc(C)ccc23)cc(OC)c1OC`, the Potency was inconclusive: 0.651 µM [cytotoxic, full curve].
With `CCOc1ccccc1NC(=O)c1oc2ccccc2c1NC(=O)C1CCCO1` (stereo not drawn) the Potency was active: 20.6 µM.
In the case of `C=CCCOc1ccccc1C(N)=O`, the Potency is reported as inconclusive: 25.9 µM [rising, partial curve, poor fit].
With `NC(=O)Cn1c(=O)n(CCCCCC(=O)NCc2ccccc2)c(=O)c2sccc21` the Potency was “inactive”.
With `CCOc1ccc(S(=O)(=O)NN)cc1` the Potency was “inactive”.
In the case of `Cc1ccc(-n2nc(C(=O)Nc3ccc(C)c(F)c3)c3c4ccccc4n(C)c3c2=O)cc1`, the Potency is reported as “inactive”.
In the case of `Cc1ccc(SCCC(=O)Nc2ccccc2C(=O)N2CCOCC2)cc1`, the Potency is reported as active: 23.1 µM.
For `CCN(CC)c1ccc(/C=C(/C#N)C(=O)NC(C)C)o1`, the Potency was inconclusive: 10.3 µM [cytotoxic, partial curve, poor fit].
With `CCOc1ccc(C(=O)c2cnc3ccc(Cl)cc3c2S(=O)(=O)c2ccc(C)cc2)cc1` the Potency was inconclusive: 23.1 µM [rising, single point].
For `CC(=O)N1CCN(C(=S)Nc2cc(C)ccn2)CC1`, the Potency was inconclusive: 29.1 µM [rising, single point].
With `Cc1nnc(SCC2=C(C(=O)O)N3C(=O)C(NC(=O)Cc4ccccc4)C3SC2)s1` (stereo not drawn) the Potency was inconclusive: 29.1 µM [rising, single point].
With `COc1ccc(CNC(=O)c2cncc(Br)c2)cc1` the Potency was “inactive”.
For `Cc1cc(SC(C)C(=O)Nc2ncc(Cl)cc2Cl)nc2ccccc12` (stereo not drawn), the Potency was active: 18.4 µM.
In the case of `CCN(CC)S(=O)(=O)c1ccc2c(c1)nc(SCC(N)=O)n2-c1ccc(OC)cc1`, the Potency is reported as inconclusive: 18.4 µM [cytotoxic, single point].
For `CCOc1ccc(S(=O)(=O)NCCCN2CCOCC2)c2ccccc12`, the Potency was “inactive”.
With `CC1(C)CC(=O)C2=C(C1)NC(Nc1nc3ccccc3o1)=NC2c1ccccc1Cl` (stereo not drawn) the Potency was “inactive”.
With `C/C(=N\Nc1cc(C)nc(NCc2ccccc2)n1)c1ccc([N+](=O)[O-])cc1` the Potency was “inactive”.
With `O=c1oc(=S)oc2c1[C@H](c1ccc(Cl)cc1)O[C@H](C1CC1)C2` the Potency was inconclusive: 20.6 µM [cytotoxic, single point].
With `COC(=O)c1c(C)nsc1NC(=O)Oc1ccccc1` the Potency was inconclusive: 23.1 µM [rising, single point].
For `Cc1ccc(C(O)P(=O)(OC2CCCCC2)OC2CCCCC2)cc1` (stereo not drawn), the Potency was “inactive”.
In the case of `Clc1ccc(Oc2ccccc2)c2ncccc12`, the Potency is reported as “inactive”.
In the case of `COc1cccc2sc(=NC(=O)CS(=O)(=O)c3ccccc3)n(C)c12`, the Potency is reported as “inactive”.
In the case of `CCOC(=O)C(=CNc1cc(C(F)(F)F)ccc1N1CCOCC1)C(=O)OCC`, the Potency is reported as inconclusive: 11.6 µM [cytotoxic, partial curve, poor fit].
For `Cc1c(OC(C)C(=O)NCCCN2CCCC2=O)ccc2c3c(c(=O)oc12)CCCC3` (stereo not drawn), the Potency was inconclusive: 7.31 µM [cytotoxic, partial curve, poor fit].
With `Cc1ccc(CNS(=O)(=O)NCc2ccccc2F)cc1` the Potency was “inactive”.
With `Cc1cccc(NC(=O)C2CCN(S(=O)(=O)c3c(C)nn(C)c3C)CC2)n1` the activity change, negative = cytotoxicity was inconclusive: 2.51%.
In the case of `CC(=O)c1cccc(NC(=O)COC(=O)c2ccc(S(C)(=O)=O)c([N+](=O)[O-])c2)c1`, the Potency is reported as “inactive”.
With `Cc1cccc(NC(=O)c2ccc(-c3nc(CSc4ccccc4)c(C)o3)cc2)c1C` the Potency was “inactive”.
With `Cc1nc2sc(C(N)=O)c(N)c2c(-c2ccc(Br)cc2)c1C(=O)Nc1ccc(Cl)cc1` the Potency was inconclusive: 20.6 µM [cytotoxic, single point].
With `C=CCN1CCN(c2ccncc2S(=O)(=O)N2CCN(C)CC2)CC1` the Potency was “inactive”.
For `CC(=O)Nc1ccc(S(=O)(=O)N2CCN=C2SCc2cccc(C)c2)cc1`, the Potency was inconclusive: 13 µM [cytotoxic, partial curve].
With `COc1ccc(Nc2nnc(SCC3CCCO3)s2)cc1` (stereo not drawn) the Potency was inconclusive: 29.1 µM [cytotoxic, single point].
For `O=c1c2ccccc2n(Cc2ccccc2F)c(=O)n1-c1cccc(F)c1`, the Potency was “inactive”.
In the case of `COc1ccc(-c2ccc3c(c2)O[C@@H](CN(C)C(=O)c2ccccc2F)[C@@H](C)CN([C@@H](C)CO)S3(=O)=O)cc1`, the Potency is reported as “inactive”.
With `COc1cccc(CNC(=O)CN2C(=O)NC(Cc3ccccc3)(c3ccccc3)C2=O)c1` (stereo not drawn) the Potency was “inactive”.
With `O=C(CSc1nnc2ccc3ccccc3n12)c1ccc(F)cc1` the Potency was “inactive”.
With `CC(=O)N1c2ccc(S(=O)(=O)N3CCC(C(=O)Nc4cccc(C)n4)CC3)cc2CC1C` (stereo not drawn) the Potency was “inactive”.
For `Cc1ccc(C2(O)CN(c3ccccc3C)C3=[N+]2CCS3)cc1` (stereo not drawn), the Potency was inconclusive: 16.4 µM [cytotoxic, partial curve, poor fit].
With `Cc1ccccc1C(=O)Nc1ccc2c(c1)CCCN2C(=O)c1cccs1` the Potency was inconclusive: 18.4 µM [cytotoxic, partial curve].
In the case of `O=C(C(=O)N1CCN(c2ccc([N+](=O)[O-])cc2)CC1)c1cn(CC(=O)N2CCOCC2)c2ccccc12`, the Potency is reported as “inactive”.
For `C[C@H](CO)N1C[C@H](C)[C@H](CN(C)C(=O)Nc2ccc(F)cc2)Oc2ccc(NC(=O)NC3CCCCC3)cc2CC1=O`, the Potency was inconclusive: 20.6 µM [rising, single point].

From PubChem BioAssay AID1347076 (National Center for Advancing Translational Sciences (NCATS), 2019)
% is set by controls: 0 for no effect and ±100 for the full control effect; potency is the fitted concentration of half-maximal effect.
